Results deposited as PubChem BioAssay AID1224828 (NIAID, 2016)
In all, the deposit lists about 17,000 reagents; shown is a random part of them. 762 of them (4.5%) count as active. 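Active calls include both raised and lowered p65 entry, mostly lowered; wells with fewer than 50 cells lack a z-score.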 Raw values are not corrected between plates. A number with no mark means an inactive call. A reagent listed more than once was tested more than once; the source does not tell the runs apart.

- Assay: 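Find genes required for NF-kappaB p65 moving into the nucleus after LPS in mouse macrophages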 (primary screen)
- Cell system: mouse RAW264.7 G9 macrophage reporter cells (GFP-p65, Tnf promoter-mCherry)
- Reagents: siRNA pool against mouse genes, 100 nM
- Timing: 2 days siRNA transfection, then 40 min LPS before fixation
- Treatment: LPS (Salmonella minnesota R595) at 10 ng/ml
- Measurement: 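Microscopy ratio of nuclear to perinuclear-ring GFP-p65 signal, scaled to the plate median; gene score is the average of two replicate robust z-scores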
- Scale: p65 translocation robust z-score: higher = more nuclear NF-kappaB p65 after LPS than the plate median; nuclear/cytoplasmic p65 ratio: higher = more nuclear NF-kappaB p65
- Active means: 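Active if robust z is above 3.3 (negative regulators) or below -1.56, the Tlr4 control median (positive regulators); activity score 50 or more; control wells not called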
- Calls: active = hit (p65 shift raised or lowered); inactive = no clear change

| Gene | p65 translocation robust z-score | nuclear/cytoplasmic p65 ratio, rep 1 | nuclear/cytoplasmic p65 ratio, rep 2 | low cell count flag |
| --- | --- | --- | --- | --- |
| Ubxn10 (UBX domain protein 10) | -0.39 | 1.25 | 1.26 | enough cells to score |
| Rab11fip1 (RAB11 family interacting protein 1 (class I)) | -0.58 | 1.53 | 1.52 | enough cells to score |
| Purb (purine rich element binding protein B) | -1.17 | 1.21 | 1.1 | enough cells to score |
| Lrrc47 (leucine rich repeat containing 47) | – | 1.05 | 1.23 | fewer than 50 cells per well; well left out of scoring |
| Tafa3 (TAFA chemokine like family member 3) | -1.51 | 1.17 | 1.02 | enough cells to score |
| Ptk2b (PTK2 protein tyrosine kinase 2 beta) | -0.02 | 1.67 | 1.38 | enough cells to score |
| Hectd3 (HECT domain E3 ubiquitin protein ligase 3) | 0.44 | 1.27 | 1.66 | enough cells to score |
| Dema1 (DPM1 ER membrane anchor 1) | -1.09 | 1.25 | 1.27 | enough cells to score |
| Nxt1 (NTF2-related export protein 1) | 1.27 | 1.62 | 1.57 | enough cells to score |
| Cyp2b19 (cytochrome P450, family 2, subfamily b, polypeptide 19) | 0.29 | 1.61 | 1.84 | enough cells to score |
| Eogt (EGF domain specific O-linked N-acetylglucosamine transferase) | 0.2 | 1.4 | 1.56 | enough cells to score |
| Cmpk1 (cytidine/uridine monophosphate kinase 1) | – | 2.27 | 1.44 | fewer than 50 cells per well; well left out of scoring |
| Cmpk1 (cytidine/uridine monophosphate kinase 1) | 1.45 | 1.66 | 1.72 | enough cells to score |
| Or5b123 (olfactory receptor family 5 subfamily B member 123) | -0.2 | 1.61 | 1.38 | enough cells to score |
| Ifnar2 (interferon (alpha and beta) receptor 2) | -1.04 | 1.2 | 1.26 | enough cells to score |
| Ntn3 (netrin 3) | -1.07 | 1.31 | 1.27 | enough cells to score |
| Cd24a (CD24a antigen) | 0.01 | 1.54 | 1.84 | enough cells to score |
| Adad1 (adenosine deaminase domain containing 1) | 0.27 | 1.49 | 1.15 | enough cells to score |
| Rlbp1 (retinaldehyde binding protein 1) | – | 1.2 | 1.69 | fewer than 50 cells per well; well left out of scoring |
| Cdk17 (cyclin dependent kinase 17) | 0.11 | 1.66 | 1.39 | enough cells to score |
| Arf2 (ARF GTPase 2) | -0.17 | 1.48 | 1.59 | enough cells to score |
| Or8c11 (olfactory receptor family 8 subfamily C member 11) | – | 1.49 | 1.41 | fewer than 50 cells per well; well left out of scoring |
| Tnfrsf10b (tumor necrosis factor receptor superfamily, member 10b) | -1.76 (active) | 1.46 | 1.12 | enough cells to score |
| Irs1 (insulin receptor substrate 1) | 0.46 | 1.74 | 1.45 | enough cells to score |
| Rab10os (RAB10, member RAS oncogene family, opposite strand) | 0.1 | 1.39 | 1.44 | enough cells to score |
| Snapc2 (small nuclear RNA activating complex, polypeptide 2) | -0.05 | 1.49 | 1.6 | enough cells to score |
| Pfdn6 (prefoldin subunit 6) | 1.52 | 1.77 | 1.85 | enough cells to score |
| Or10ag56 (olfactory receptor family 10 subfamily AG member 56) | 0.66 | 1.94 | 1.52 | enough cells to score |
| Grb2 (growth factor receptor bound protein 2) | -1.55 | 1.28 | 1.13 | enough cells to score |
| Ncf4 (neutrophil cytosolic factor 4) | 1.29 | 2.11 | 1.68 | enough cells to score |
| Upk2 (uroplakin 2) | – | 1.38 | 1.21 | fewer than 50 cells per well; well left out of scoring |
| Eif3c (eukaryotic translation initiation factor 3, subunit C) | 0.17 | 1.64 | 1.64 | enough cells to score |
| Vmn1r52 (vomeronasal 1 receptor 52) | 0.81 | 0 | 1.32 | enough cells to score |
| Galnt18 (polypeptide N-acetylgalactosaminyltransferase 18) | -0.01 | 1.62 | 1.79 | enough cells to score |
| Spcs2 (signal peptidase complex subunit 2 homolog (S. cerevisiae)) | -1.13 | 1.25 | 1.28 | enough cells to score |
| Isoc2b (isochorismatase domain containing 2b) | – | 1.15 | 1.15 | fewer than 50 cells per well; well left out of scoring |
| Grb14 (growth factor receptor bound protein 14) | 0.72 | 1.55 | 1.44 | enough cells to score |
| Rpn2 (ribophorin II) | – | 1.59 | 1.1 | fewer than 50 cells per well; well left out of scoring |
| Cog2 (component of oligomeric golgi complex 2) | 0.02 | 1.54 | 1.85 | enough cells to score |
| Ski (ski proto-oncogene) | -0.68 | 1.42 | 1.49 | enough cells to score |
| Med11 (mediator complex subunit 11) | -0.74 | 1.4 | 1.38 | enough cells to score |
| Npc1 (NPC intracellular cholesterol transporter 1) | – | 1.27 | 1.26 | fewer than 50 cells per well; well left out of scoring |
| Adss1 (adenylosuccinate synthase 1) | -1.54 | 1.29 | 1.53 | enough cells to score |
| Sult5a1 (sulfotransferase family 5A, member 1) | – | 1.22 | 1.23 | fewer than 50 cells per well; well left out of scoring |
| Or4a74 (olfactory receptor family 4 subfamily A member 74) | 0.61 | 1.63 | 1.56 | enough cells to score |
| Treml4 (triggering receptor expressed on myeloid cells-like 4) | -0.33 | 1.33 | 1.4 | enough cells to score |

12 consecutive reagents already listed, quoted:
| Gene | p65 translocation robust z-score | nuclear/cytoplasmic p65 ratio, rep 1 | nuclear/cytoplasmic p65 ratio, rep 2 | low cell count flag |
| --- | --- | --- | --- | --- |
| Vmn1r52 (vomeronasal 1 receptor 52) | 0.81 | 0 | 1.32 | enough cells to score |
| Galnt18 (polypeptide N-acetylgalactosaminyltransferase 18) | -0.01 | 1.62 | 1.79 | enough cells to score |
| Spcs2 (signal peptidase complex subunit 2 homolog (S. cerevisiae)) | -1.13 | 1.25 | 1.28 | enough cells to score |
| Isoc2b (isochorismatase domain containing 2b) | – | 1.15 | 1.15 | fewer than 50 cells per well; well left out of scoring |
| Grb14 (growth factor receptor bound protein 14) | 0.72 | 1.55 | 1.44 | enough cells to score |
| Rpn2 (ribophorin II) | – | 1.59 | 1.1 | fewer than 50 cells per well; well left out of scoring |
| Cog2 (component of oligomeric golgi complex 2) | 0.02 | 1.54 | 1.85 | enough cells to score |
| Ski (ski proto-oncogene) | -0.68 | 1.42 | 1.49 | enough cells to score |
| Med11 (mediator complex subunit 11) | -0.74 | 1.4 | 1.38 | enough cells to score |
| Npc1 (NPC intracellular cholesterol transporter 1) | – | 1.27 | 1.26 | fewer than 50 cells per well; well left out of scoring |
| Adss1 (adenylosuccinate synthase 1) | -1.54 | 1.29 | 1.53 | enough cells to score |
| Sult5a1 (sulfotransferase family 5A, member 1) | – | 1.22 | 1.23 | fewer than 50 cells per well; well left out of scoring |

Further results follow.
| Gene | p65 translocation robust z-score | nuclear/cytoplasmic p65 ratio, rep 1 | nuclear/cytoplasmic p65 ratio, rep 2 | low cell count flag |
| --- | --- | --- | --- | --- |
| Bcl2a1c (B cell leukemia/lymphoma 2 related protein A1c) | – | 1.43 | 1.48 | fewer than 50 cells per well; well left out of scoring |
| Pla2g2f (phospholipase A2, group IIF) | – | 1.34 | 1.39 | fewer than 50 cells per well; well left out of scoring |
| Pcdhga12 (protocadherin gamma subfamily A, 12) | 1.26 | 1.62 | 1.38 | enough cells to score |
| Slc7a15 | – | 1.14 | 1.45 | fewer than 50 cells per well; well left out of scoring |
| Rnf208 (ring finger protein 208) | – | 1.46 | 1.56 | fewer than 50 cells per well; well left out of scoring |
| Scn7a (sodium channel, voltage-gated, type VII, alpha) | 0.03 | 1.53 | 1.21 | enough cells to score |
| Cyrib (CYFIP related Rac1 interactor B) | 0.65 | 1.55 | 1.62 | enough cells to score |
| Oga (O-GlcNAcase) | 0.94 | 1.52 | 1.51 | enough cells to score |
| Cyp2d22 (cytochrome P450, family 2, subfamily d, polypeptide 22) | -0.67 | 1.34 | 1.33 | enough cells to score |
| Ak8 (adenylate kinase 8) | 0.53 | 1.33 | 1.45 | enough cells to score |
| Oscar (osteoclast associated receptor) | 0.66 | 1.5 | 1.35 | enough cells to score |
| Rps15a (ribosomal protein S15A) | – | 1.17 | 1.17 | fewer than 50 cells per well; well left out of scoring |
| H4c8 (H4 clustered histone 8) | -0.06 | 1.47 | 1.49 | enough cells to score |
| Pdpk1 (3-phosphoinositide dependent protein kinase 1) | 0.83 | 1.76 | 1.53 | enough cells to score |
| Tnfrsf1a (tumor necrosis factor receptor superfamily, member 1a) | – | 1.49 | 1.45 | fewer than 50 cells per well; well left out of scoring |
| Synb (syncytin b) | -0.25 | 1.54 | 1.5 | enough cells to score |
| Ctso (cathepsin O) | 0.14 | 1.54 | 1.36 | enough cells to score |
| Arid5b (AT-rich interaction domain 5B) | – | 1.33 | 1.4 | fewer than 50 cells per well; well left out of scoring |
| Nectin1 (nectin cell adhesion molecule 1) | 0.75 | 1.63 | 1.61 | enough cells to score |
| Poglut1 (protein O-glucosyltransferase 1) | -2.07 (active) | 1.12 | 1.29 | enough cells to score |
| Ash1l (ASH1 like histone lysine methyltransferase) | -0.39 | 1.6 | 1.52 | enough cells to score |
| G0s2 (G0/G1 switch gene 2) | -1.68 (active) | 1.33 | 1.34 | enough cells to score |
| Sall1 (spalt like transcription factor 1) | -0.52 | 1.27 | 1.61 | enough cells to score |
| Slc12a6 | 0.28 | 1.5 | 1.62 | enough cells to score |
| Gjd3 (gap junction protein, delta 3) | -1.52 | 1.35 | 1.38 | enough cells to score |
| Pak6 (p21 (RAC1) activated kinase 6) | 0.14 | 2.02 | 1.39 | enough cells to score |
| Gper1 (G protein-coupled estrogen receptor 1) | -0.06 | 1.47 | 1.6 | enough cells to score |
| Tyw2 (tRNA wybutosine-synthesizing protein 2) | -0.21 | 1.26 | 1.23 | enough cells to score |
| Mrto4 (mRNA turnover 4, ribosome maturation factor) | 0.41 | 1.46 | 1.66 | enough cells to score |
